According to the supplement of paper PMC6331611:
± gives the standard deviation of the averaged measurements. The full ranking holds about 1,600 compounds; the median of “normalized intracellular growth (luminescence, IQM-normalized) in RAW264.7 macrophages” is about 1, and the lowest 2% start at about 0.43. This is one part of the list.

Tested on: Salmonella enterica serovar Typhimurium SL1344
Assay: normalized intracellular growth (luminescence, IQM-normalized) in RAW264.7 macrophages (fraction of plate interquartile mean); higher = more bacterial growth (less inhibition)
Conditions: 10 µM

CC(C(=O)O)c1ccc(CC2CCCC2=O)cc1 (centres undefined)
normalized intracellular growth (time point: T3 (3 h)): 1.05 ± 0.055 | normalized intracellular growth (time point: Tfinal (~6 h)): 1.06 ± 0.064

CC1=C(/C=C/C(C)=C/C=C/C(C)=C/C=C/C=C(C)/C=C/C=C(C)/C=C/C2=C(C)CCCC2(C)C)C(C)(C)CCC1 [beta-CAROTENE]
normalized intracellular growth (time point: T3 (3 h)): 1.02 ± 0.044 | normalized intracellular growth (time point: Tfinal (~6 h)): 1.12 ± 0.15

CO[C@H]1/C=C/O[C@@]2(C)Oc3c(C)c(O)c4c(O)c(c(/C=N/N5CCN(C)CC5)c(O)c4c3C2=O)NC(=O)/C(C)=C\C=C\[C@H](C)[C@H](O)[C@@H](C)[C@@H](O)[C@@H](C)[C@H](OC(C)=O)[C@@H]1C
normalized intracellular growth (time point: T3 (3 h)): 1.09 ± 0.079 | normalized intracellular growth (time point: Tfinal (~6 h)): 0.83 ± 0.12

Cc1c(Cl)cccc1Nc1ccccc1C(=O)O
normalized intracellular growth (time point: T3 (3 h)): 1.1 ± 0.018 | normalized intracellular growth (time point: Tfinal (~6 h)): 1.05 ± 0.2

CCCSc1ccc2[nH]c(NC(=O)OC)nc2c1
normalized intracellular growth (time point: T3 (3 h)): 0.992 ± 0.03 | normalized intracellular growth (time point: Tfinal (~6 h)): 0.954 ± 0.07

Cc1ccc(N(CC2=NCCN2)c2cccc(O)c2)cc1
normalized intracellular growth (time point: T3 (3 h)): 0.978 ± 0.012 | normalized intracellular growth (time point: Tfinal (~6 h)): 0.936 ± 0.033

O=C1c2c(O)cc(CO)cc2C(OC2OC(CO)C(O)C(O)C2O)c2cccc(OC3OC(CO)C(O)C(O)C3O)c21 (centres undefined) [CASANTHRANOL [cascaroside A shown]]
normalized intracellular growth (time point: T3 (3 h)): 0.997 ± 0.016 | normalized intracellular growth (time point: Tfinal (~6 h)): 0.857 ± 0.041

CCc1ccc(CCOc2ccc(CC3SC(=O)NC3=O)cc2)nc1 (centres undefined)
normalized intracellular growth (time point: T3 (3 h)): 1.1 ± 0.031 | normalized intracellular growth (time point: Tfinal (~6 h)): 1.08 ± 0.18

O=C(O)c1ccccc1-c1c2cc(I)c(=O)c(I)c-2oc2c(I)c(O)c(I)cc12
normalized intracellular growth (time point: T3 (3 h)): 1.24 ± 0.017 | normalized intracellular growth (time point: Tfinal (~6 h)): 1.21 ± 0.018

C[C@H](N[C@@H](CCc1ccccc1)C(=O)O)C(=O)N1CCC[C@H]1C(=O)O
normalized intracellular growth (time point: T3 (3 h)): 1.03 ± 0.024 | normalized intracellular growth (time point: Tfinal (~6 h)): 1.03 ± 0.22

CN(C)[C@@H]1C(O)=C(C(N)=O)C(=O)[C@@]2(O)C(O)=C3C(=O)c4c(O)cccc4[C@@](C)(O)[C@H]3C[C@@H]12
normalized intracellular growth (time point: T3 (3 h)): 0.598 ± 0.062 | normalized intracellular growth (time point: Tfinal (~6 h)): 0.209 ± 0.048

COCCCC/C(=N\OCCN)c1ccc(C(F)(F)F)cc1
normalized intracellular growth (time point: T3 (3 h)): 0.991 ± 0.047 | normalized intracellular growth (time point: Tfinal (~6 h)): 0.956 ± 0.25

C[C@]12CCC(=O)C=C1CC[C@@H]1[C@@H]2C(=O)C[C@@]2(C)[C@H]1CC[C@]2(O)C(=O)CO
normalized intracellular growth (time point: T3 (3 h)): 0.977 ± 0.079 | normalized intracellular growth (time point: Tfinal (~6 h)): 1.08 ± 0.11

COC(=O)[C@H](c1ccccc1Cl)N1CCc2sccc2C1
normalized intracellular growth (time point: T3 (3 h)): 0.973 ± 0.029 | normalized intracellular growth (time point: Tfinal (~6 h)): 0.927 ± 0.36

CC(=O)[C@@]12O[C@](C)(c3ccccc3)O[C@@H]1C[C@H]1[C@@H]3CCC4=CC(=O)CC[C@]4(C)[C@H]3CC[C@@]12C
normalized intracellular growth (time point: T3 (3 h)): 1.02 ± 0.042 | normalized intracellular growth (time point: Tfinal (~6 h)): 1.24 ± 0.13

NC(=O)N[C@@H](CCC(=O)O)C(=O)O
normalized intracellular growth (time point: T3 (3 h)): 0.963 ± 0.023 | normalized intracellular growth (time point: Tfinal (~6 h)): 0.872 ± 0.12

NC(=O)c1ccccc1O
normalized intracellular growth (time point: T3 (3 h)): 1.04 ± 0.085 | normalized intracellular growth (time point: Tfinal (~6 h)): 0.978 ± 0.036

Nc1nc(F)nc2c1ncn2[C@@H]1O[C@H](COP(=O)(O)O)[C@@H](O)[C@@H]1O
normalized intracellular growth (time point: T3 (3 h)): 0.982 ± 0.061 | normalized intracellular growth (time point: Tfinal (~6 h)): 1.16 ± 0.13

CCOC(=O)N1CCC(=C2c3ccc(Cl)cc3CCc3cccnc32)CC1
normalized intracellular growth (time point: T3 (3 h)): 0.958 ± 0.02 | normalized intracellular growth (time point: Tfinal (~6 h)): 1.18 ± 0.025

Oc1c(Br)cc(Br)c2cccnc12
normalized intracellular growth (time point: T3 (3 h)): 0.991 ± 0.03 | normalized intracellular growth (time point: Tfinal (~6 h)): 1.07 ± 0.084

CN1CCN(C2=Nc3ccccc3Oc3ccc(Cl)cc32)CC1
normalized intracellular growth (time point: T3 (3 h)): 1.03 ± 0.028 | normalized intracellular growth (time point: Tfinal (~6 h)): 0.898 ± 0.013

CC(C)CC(N)=O
normalized intracellular growth (time point: T3 (3 h)): 1.05 ± 0.021 | normalized intracellular growth (time point: Tfinal (~6 h)): 1.11 ± 0.057

COc1c2occc2cc2ccc(=O)oc12
normalized intracellular growth (time point: T3 (3 h)): 1.15 ± 0.034 | normalized intracellular growth (time point: Tfinal (~6 h)): 1.36 ± 0.076

N=C(NCCCCCCNC(=N)NC(=N)Nc1ccc(Cl)cc1)NC(=N)Nc1ccc(Cl)cc1
normalized intracellular growth (time point: T3 (3 h)): 0.912 ± 0.078 | normalized intracellular growth (time point: Tfinal (~6 h)): 1.15 ± 0.014

NCc1ccccc1CC(=O)N[C@@H]1C(=O)N2C(C(=O)O)=C(CSc3nnnn3CC(=O)O)CS[C@H]12
normalized intracellular growth (time point: T3 (3 h)): 0.965 ± 0.061 | normalized intracellular growth (time point: Tfinal (~6 h)): 1.16 ± 0.11

C[N+]1(C)CCC(OC(=O)C(O)(c2ccccc2)C2CCCC2)C1 (centres undefined)
normalized intracellular growth (time point: T3 (3 h)): 1.03 ± 0.078 | normalized intracellular growth (time point: Tfinal (~6 h)): 0.874 ± 0.059

N#Cc1ccc(C(c2ccc(C#N)cc2)n2cncn2)cc1
normalized intracellular growth (time point: T3 (3 h)): 1.04 ± 0.026 | normalized intracellular growth (time point: Tfinal (~6 h)): 1.17 ± 0.092

Clc1ccc(CCC(Cn2ccnc2)Sc2c(Cl)cccc2Cl)cc1 (centres undefined)
normalized intracellular growth (time point: T3 (3 h)): 1.01 ± 0.027 | normalized intracellular growth (time point: Tfinal (~6 h)): 1.04 ± 0.21

O=C(O)Cc1ccc(-c2ccccc2)cc1
normalized intracellular growth (time point: T3 (3 h)): 1.03 ± 0.063 | normalized intracellular growth (time point: Tfinal (~6 h)): 1.03 ± 0.083

C[C@@H]1C[C@H]2[C@@H]3C[C@H](F)C4=CC(=O)C=C[C@]4(C)[C@@]3(F)[C@@H](O)C[C@]2(C)[C@@]1(O)C(=O)CO
normalized intracellular growth (time point: T3 (3 h)): 1.01 ± 0.032 | normalized intracellular growth (time point: Tfinal (~6 h)): 0.896 ± 0.019

O=C(O)c1cn(-c2ccc(F)cc2)c2cc(N3CCNCC3)c(F)cc2c1=O
normalized intracellular growth (time point: T3 (3 h)): 1.1 ± 0.081 | normalized intracellular growth (time point: Tfinal (~6 h)): 0.00781 ± 0.0016

CC(=O)OCC(=O)[C@@]1(O)[C@@H](C)C[C@H]2[C@@H]3CCC4=CC(=O)C=C[C@]4(C)[C@@]3(F)[C@@H](O)C[C@@]21C
normalized intracellular growth (time point: T3 (3 h)): 0.969 ± 0.035 | normalized intracellular growth (time point: Tfinal (~6 h)): 1.1 ± 0.07

O=C1c2c(O)cccc2Cc2cccc(O)c21
normalized intracellular growth (time point: T3 (3 h)): 0.966 ± 0.032 | normalized intracellular growth (time point: Tfinal (~6 h)): 0.963 ± 0.019

CO[C@H]1C[C@H](O[C@H]2[C@H](C)O[C@@H](O[C@@H]3/C(C)=C/C[C@@H]4C[C@@H](C[C@]5(C=C[C@H](C)[C@@H](C6CCCCC6)O5)O4)OC(=O)[C@@H]4C=C(C)[C@@H](O)[C@H]5OC/C(=C\C=C\[C@@H]3C)[C@]54O)C[C@@H]2OC)O[C@@H](C)[C@@H]1O
normalized intracellular growth (time point: T3 (3 h)): 1.02 ± 0.048 | normalized intracellular growth (time point: Tfinal (~6 h)): 1.08 ± 0.21

CC[N+](C)(CC)CCOC(=O)C(O)(c1ccccc1)C1CCCCC1 (centres undefined)
normalized intracellular growth (time point: T3 (3 h)): 1.03 ± 0.018 | normalized intracellular growth (time point: Tfinal (~6 h)): 1.24 ± 0.038

CN(C)CCCN1c2ccccc2Sc2ccc(C(F)(F)F)cc21
normalized intracellular growth (time point: T3 (3 h)): 1 ± 0.051 | normalized intracellular growth (time point: Tfinal (~6 h)): 0.863 ± 0.037

Oc1cc(O)c2c(c1)O[C@H](c1ccc(O)c(O)c1)[C@@H](O)C2
normalized intracellular growth (time point: T3 (3 h)): 0.972 ± 0.0031 | normalized intracellular growth (time point: Tfinal (~6 h)): 0.928 ± 0.12

CC(=O)Oc1ccccc1C(=O)Nc1ncc([N+](=O)[O-])s1
normalized intracellular growth (time point: T3 (3 h)): 1.14 ± 0.035 | normalized intracellular growth (time point: Tfinal (~6 h)): 0.583 ± 0.019

CC1(C)OC(=O)C(OCC2CC2)=C1c1ccc(S(C)(=O)=O)cc1
normalized intracellular growth (time point: T3 (3 h)): 1.15 ± 0.017 | normalized intracellular growth (time point: Tfinal (~6 h)): 1.2 ± 0.13

CC(N/C(=N\C#N)Nc1ccncc1)C(C)(C)C (centres undefined)
normalized intracellular growth (time point: T3 (3 h)): 1.03 ± 0.025 | normalized intracellular growth (time point: Tfinal (~6 h)): 0.996 ± 0.11

CCCCC(O)c1ccccc1 (centres undefined)
normalized intracellular growth (time point: T3 (3 h)): 1.08 ± 0.03 | normalized intracellular growth (time point: Tfinal (~6 h)): 0.991 ± 0.18

CCCCOCCOCCOCc1cc2c(cc1CCC)OCO2
normalized intracellular growth (time point: T3 (3 h)): 0.982 ± 0.015 | normalized intracellular growth (time point: Tfinal (~6 h)): 1.1 ± 0.014
